PubChem BioAssay AID1487 (National Center for Advancing Translational Sciences (NCATS), 2009)
The other results are listed elsewhere or left out. The main result of the screen is listed elsewhere. These columns were measured beside it and carry no call. Compounds called inactive in the main read-out are mostly missing here. Potencies come from curve fits of mixed quality, noted in brackets.

Assay: qHTS Assay for Modulators of Lamin A Splicing
Details: HeLa LMNA splicing GFP/RFP minigene ratio, 48 h
How it was run: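 S3 HeLa stable clones carrying a lamin A-EGFP splicing minigene plus DsRed2 were seeded at 600 cells/well in Opti-MEM with 2% FBS, pin-dosed and incubated 48 h at 37°C. Acumen cytometry (488 nm) gave the GFP/RFP total-intensity ratio.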

[1] = measured here: GFP splicing reporter channel
[2] = measured here: RFP viability control channel

SMILES	AC50 [1]	AC50 [2]
CC1(OC(=O)CCc2ccccc2)C(=O)C=C2C=C(c3ccc(C#N)cc3)N(C3CC3)C=C2C1=O (stereo not drawn)	0.00631 µM [falling, full curve]	–
O=C(Nc1cccc(Cl)c1N1CCCCC1)c1ccc2c(c1)OCCO2	35.5 µM [rising, single point]	–
O=C(Oc1ccc2ccccc2c1Br)N1CCCCCC1	2.82 µM [falling, single point]	–
Fc1ccc(CNC(=S)Nc2cccc(C(F)(F)F)c2)cc1	–	31.6 µM [rising, single point]
CCCCC1=CC2=C(c3ccco3)C(=O)C(C)(OC(=O)c3ccc(OC)cc3)C(=O)C2=CN1C1CC1 (stereo not drawn)	0.0708 µM [rising, full curve]	0.126 µM [rising, full curve]
CCOc1ccc(OCCN2C(=O)NC3(CCCc4ccccc43)C2=O)cc1 (stereo not drawn)	–	11.2 µM [rising, single point]
CCc1nc(NCc2ccccn2)c2oc3ccccc3c2n1	–	14.1 µM [rising, partial curve]
Cc1nnc(Sc2nc3ccccc3o2)c2ccccc12	22.4 µM [falling, single point]	35.5 µM [falling, single point]
C/C(N)=C(/C#N)C(=O)COC(=O)C1CCN(C(=O)c2ccc(Cl)cc2)CC1	2 µM [falling, partial curve, poor fit]	–
CCC1CCCCN1C(=O)c1cc(-c2ccc(Cl)c(Cl)c2)on1 (stereo not drawn)	–	35.5 µM [rising, single point]
COc1cccc(Nc2c3c(nc4c(-c5ccccc5)c(C)nn24)CCC3)c1	12.6 µM [rising, partial curve]	22.4 µM [rising, partial curve]
CC(=O)Nc1ccc2nc(NC(=O)COc3cccc(C)c3)sc2c1	–	0.00891 µM [falling, full curve, poor fit]
CCOc1ccccc1Nc1nc(-c2sc(NC(=O)c3cccc(Cl)c3)nc2C)cs1	10 µM [falling, partial curve]	11.2 µM [falling, partial curve]
O=C(c1cc(-c2ccncc2)nc2ccccc12)N1CCN(c2ccccn2)CC1	–	10 µM [rising, partial curve]
COc1ccc(NC(=O)Nc2cccc([N+](=O)[O-])c2)cc1Cl	–	14.1 µM [rising, partial curve]
Cc1cc(C)cc(NC(=O)c2cnc3sc(N4CCCC4)nn3c2=O)c1	25.1 µM [falling, single point]	–
COc1cc(-c2nc3ccc4ccccc4c3c3c2CCC3)cc(OC)c1O	15.8 µM [rising, single point]	14.1 µM [rising, partial curve, poor fit]
Cc1ccc(NC(=O)CSc2n[nH]c(=O)n2C2CC2)cc1S(=O)(=O)N1CCOCC1	–	11.2 µM [rising, partial curve, poor fit]

SMILES	AC50 [1]	AC50 [2]
Cc1ccccc1-n1nnnc1SC1CCOC1=O (stereo not drawn)	–	0.00316 µM [falling, full curve, poor fit]
N#Cc1ccc(-c2ccco2)nc1SCC(=O)c1ccc(Cl)cc1	1 µM [rising, full curve, poor fit]	–
COc1ccc(C)cc1NC(=O)N1CC(C)Sc2ccccc21 (stereo not drawn)	–	0.1 µM [falling, single point]
Clc1ccc(Cn2ncc3c(NCc4cccnc4)ncnc32)cc1	17.8 µM [rising, partial curve, poor fit]	14.1 µM [rising, partial curve]
CN(C)c1ccc(/C=C2/SC(=O)N(CCN=C3NS(=O)(=O)c4ccccc43)C2=O)cc1	6.31 µM [falling, partial curve, poor fit]	–
Cc1cc(/C=N/NC(N)=S)c(C)n1-c1ccc(Br)cc1	31.6 µM [rising, single point]	–
COC(=O)c1c(NC(=O)CN2CCC3(O)CCCCC3C2c2ccccc2OC)sc(C)c1C (stereo not drawn)	14.1 µM [rising, single point]	22.4 µM [rising, single point]
CCC1CCCCN1S(=O)(=O)c1cc(C(=O)Nc2ccc(C)c(F)c2)ccc1F (stereo not drawn)	1.58 µM [falling, full curve, poor fit]	–
CCCCCCCCC(=O)N/N=C/c1cccc(Br)c1	–	35.5 µM [falling, single point]
CC[C@]1(O)C[C@@H]2CN(CCc3c([nH]c4ccccc34)[C@@](C(=O)OC)(c3cc4c(cc3OC)N(C)[C@H]3[C@@](O)(C(=O)OC)[C@H](OC(C)=O)[C@]5(CC)C=CCN6CC[C@]43[C@@H]65)C2)C1	0.2 µM [falling, partial curve, poor fit]	2.82 µM [falling, full curve, poor fit]
O=C(O)c1cccc2c1C(=O)c1ccccc1-2	–	0.00316 µM [falling, full curve, poor fit]
COCCn1c(C)cc(C(=O)COc2nc3ccccc3nc2C)c1C	–	10 µM [rising, partial curve]
CC(C)CC(=O)N1CCN(Cc2ccccc2[N+](=O)[O-])CC1	–	0.0501 µM [falling, full curve]
COc1ccc(-n2cc(-c3ccccc3)c3c(NC4CCCC4)ncnc32)cc1	22.4 µM [falling, single point]	35.5 µM [falling, single point]
CCOC(=O)c1c(NC(=O)CSc2nnc(N)s2)sc(C)c1-c1ccc(C)cc1	10 µM [rising, partial curve]	10 µM [rising, partial curve]
COc1ccc(CNc2ccccc2SC)cc1OC	20 µM [rising, single point]	31.6 µM [rising, single point]
Cc1cc(/C([O-])=C(/C(=S)Nc2ccc(F)cc2)[n+]2ccccc2)c(C)n1-c1ccc(F)cc1	14.1 µM [rising, single point]	–
CCCCNC(=O)c1onc(CSc2cccc(OC)c2)c1C(=O)O	22.4 µM [rising, single point]	20 µM [rising, single point]

Compounds listed so far with an NH in an aromatic ring, in the order listed:
SMILES	AC50 [1]	AC50 [2]
Cc1ccc(NC(=O)CSc2n[nH]c(=O)n2C2CC2)cc1S(=O)(=O)N1CCOCC1	–	11.2 µM [rising, partial curve, poor fit]
CC[C@]1(O)C[C@@H]2CN(CCc3c([nH]c4ccccc34)[C@@](C(=O)OC)(c3cc4c(cc3OC)N(C)[C@H]3[C@@](O)(C(=O)OC)[C@H](OC(C)=O)[C@]5(CC)C=CCN6CC[C@]43[C@@H]65)C2)C1	0.2 µM [falling, partial curve, poor fit]	2.82 µM [falling, full curve, poor fit]
